In article doi:10.1101/2022.09.29.510199:
These are yes or no findings as the source states them, for the method shown. Some results given as binding are weak or reduced against the parent protein; the word gives no strength.

Molecular target: T1, Norrin (human, from the SUMO-Norrin construct, SUMO removed) (human), Q00604
T1 chain: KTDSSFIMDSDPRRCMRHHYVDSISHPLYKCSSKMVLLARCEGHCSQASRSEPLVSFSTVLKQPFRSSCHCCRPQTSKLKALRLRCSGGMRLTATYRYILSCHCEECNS
Experiment: crystal structure
Conditions: remark: other sources report otherwise

B1: Norrin (human, from the SUMO-Norrin construct, SUMO removed), Q00604 25-133 (ligand)
chain: T1 chain
With B1 the binding was “binds”.
